Source: the supplement of paper PMC10849652
Some of the results follow.

By UniProt entry, the sequences of proteins in these tests, tags left out. Where a name states a change or a piece, a line headed by the entry shows the natural chain unless it says otherwise.
UniProt Q9HD40: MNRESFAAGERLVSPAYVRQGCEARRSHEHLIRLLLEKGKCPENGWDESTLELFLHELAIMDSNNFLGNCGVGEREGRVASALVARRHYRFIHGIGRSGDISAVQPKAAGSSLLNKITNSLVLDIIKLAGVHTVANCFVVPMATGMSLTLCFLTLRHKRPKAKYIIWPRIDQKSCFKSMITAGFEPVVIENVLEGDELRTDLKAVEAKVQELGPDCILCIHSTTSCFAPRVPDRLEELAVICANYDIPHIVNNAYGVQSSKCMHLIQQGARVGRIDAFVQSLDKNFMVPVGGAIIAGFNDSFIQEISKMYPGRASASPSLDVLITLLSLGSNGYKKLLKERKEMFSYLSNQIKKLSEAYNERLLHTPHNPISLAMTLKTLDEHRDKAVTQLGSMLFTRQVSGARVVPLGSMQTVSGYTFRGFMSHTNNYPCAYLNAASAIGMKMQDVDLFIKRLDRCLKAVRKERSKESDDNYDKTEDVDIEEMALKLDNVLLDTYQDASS
UniProt Q99611, whole entry, looked up: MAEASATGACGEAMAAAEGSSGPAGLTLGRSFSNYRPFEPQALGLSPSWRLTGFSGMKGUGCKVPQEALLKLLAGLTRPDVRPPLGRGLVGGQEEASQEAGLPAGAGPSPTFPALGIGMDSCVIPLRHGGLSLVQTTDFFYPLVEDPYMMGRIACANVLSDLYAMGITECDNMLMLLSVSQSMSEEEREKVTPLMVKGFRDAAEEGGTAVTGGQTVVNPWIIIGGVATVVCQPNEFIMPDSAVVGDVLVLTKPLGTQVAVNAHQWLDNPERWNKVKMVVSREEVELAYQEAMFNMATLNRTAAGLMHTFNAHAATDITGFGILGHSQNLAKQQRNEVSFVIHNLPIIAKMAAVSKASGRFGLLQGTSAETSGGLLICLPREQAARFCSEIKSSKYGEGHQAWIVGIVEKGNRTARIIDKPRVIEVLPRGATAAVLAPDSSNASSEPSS
UniProt O75368: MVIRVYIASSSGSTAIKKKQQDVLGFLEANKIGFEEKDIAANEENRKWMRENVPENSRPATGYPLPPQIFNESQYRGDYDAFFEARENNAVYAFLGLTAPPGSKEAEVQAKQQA
UniProt O60239: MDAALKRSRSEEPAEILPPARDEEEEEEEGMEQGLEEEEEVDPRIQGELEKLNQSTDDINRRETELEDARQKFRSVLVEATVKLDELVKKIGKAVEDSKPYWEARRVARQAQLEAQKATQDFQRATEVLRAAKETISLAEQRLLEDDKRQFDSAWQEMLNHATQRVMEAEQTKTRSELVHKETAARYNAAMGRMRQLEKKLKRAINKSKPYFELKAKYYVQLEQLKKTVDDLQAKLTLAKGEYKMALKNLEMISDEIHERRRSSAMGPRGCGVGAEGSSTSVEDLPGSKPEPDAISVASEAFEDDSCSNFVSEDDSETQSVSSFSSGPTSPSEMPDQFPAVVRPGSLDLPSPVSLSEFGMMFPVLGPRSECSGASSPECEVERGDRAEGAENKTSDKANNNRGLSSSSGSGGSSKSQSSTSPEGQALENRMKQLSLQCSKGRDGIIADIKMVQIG
UniProt Q15393: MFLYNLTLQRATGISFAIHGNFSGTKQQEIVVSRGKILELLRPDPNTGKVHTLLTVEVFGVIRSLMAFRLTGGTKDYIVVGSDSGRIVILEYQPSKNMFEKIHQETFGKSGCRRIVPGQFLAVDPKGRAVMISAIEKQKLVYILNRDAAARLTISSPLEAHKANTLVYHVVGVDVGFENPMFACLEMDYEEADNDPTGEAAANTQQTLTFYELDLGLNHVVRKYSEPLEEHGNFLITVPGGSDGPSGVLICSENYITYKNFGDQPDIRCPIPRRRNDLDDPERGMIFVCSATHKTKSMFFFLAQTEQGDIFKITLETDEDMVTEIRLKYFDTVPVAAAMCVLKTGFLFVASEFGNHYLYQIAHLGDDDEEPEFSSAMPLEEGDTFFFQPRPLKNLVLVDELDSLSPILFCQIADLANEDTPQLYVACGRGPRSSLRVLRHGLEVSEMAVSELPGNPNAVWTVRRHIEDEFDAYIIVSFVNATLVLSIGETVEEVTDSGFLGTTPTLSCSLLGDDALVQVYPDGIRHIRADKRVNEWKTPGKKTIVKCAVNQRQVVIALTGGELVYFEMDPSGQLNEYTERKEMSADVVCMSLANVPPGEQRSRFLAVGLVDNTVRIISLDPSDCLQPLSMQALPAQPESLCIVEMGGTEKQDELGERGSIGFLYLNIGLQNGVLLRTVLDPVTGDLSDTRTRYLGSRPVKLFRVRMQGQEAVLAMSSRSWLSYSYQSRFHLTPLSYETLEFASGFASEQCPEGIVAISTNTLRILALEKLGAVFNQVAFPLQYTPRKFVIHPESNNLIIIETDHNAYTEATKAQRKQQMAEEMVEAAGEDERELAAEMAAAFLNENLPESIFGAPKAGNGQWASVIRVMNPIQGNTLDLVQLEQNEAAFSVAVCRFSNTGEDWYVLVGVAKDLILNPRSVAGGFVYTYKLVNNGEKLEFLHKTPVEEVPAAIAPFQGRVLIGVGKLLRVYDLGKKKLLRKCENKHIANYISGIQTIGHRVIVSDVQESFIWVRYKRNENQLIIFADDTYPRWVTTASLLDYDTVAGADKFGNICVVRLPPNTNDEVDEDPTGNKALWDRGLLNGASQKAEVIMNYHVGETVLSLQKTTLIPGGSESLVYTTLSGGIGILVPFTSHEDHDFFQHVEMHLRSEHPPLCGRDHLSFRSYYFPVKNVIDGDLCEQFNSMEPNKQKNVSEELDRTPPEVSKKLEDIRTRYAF
UniProt O60613, whole entry, looked up: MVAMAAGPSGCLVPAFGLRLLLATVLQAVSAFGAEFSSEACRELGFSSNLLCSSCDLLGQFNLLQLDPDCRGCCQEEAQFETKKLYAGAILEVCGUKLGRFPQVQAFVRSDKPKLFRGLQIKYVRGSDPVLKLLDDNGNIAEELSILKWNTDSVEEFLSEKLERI
UniProt Q9H9B4: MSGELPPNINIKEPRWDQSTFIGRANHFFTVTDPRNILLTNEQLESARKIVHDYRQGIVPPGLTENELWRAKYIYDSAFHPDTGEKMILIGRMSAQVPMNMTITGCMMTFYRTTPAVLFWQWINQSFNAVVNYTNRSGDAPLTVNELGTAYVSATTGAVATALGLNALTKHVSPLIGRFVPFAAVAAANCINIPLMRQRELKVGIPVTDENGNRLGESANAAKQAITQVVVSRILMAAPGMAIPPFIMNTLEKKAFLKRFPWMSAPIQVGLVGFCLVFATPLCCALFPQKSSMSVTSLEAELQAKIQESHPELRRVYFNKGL
UniProt Q9BQE4, whole entry, looked up: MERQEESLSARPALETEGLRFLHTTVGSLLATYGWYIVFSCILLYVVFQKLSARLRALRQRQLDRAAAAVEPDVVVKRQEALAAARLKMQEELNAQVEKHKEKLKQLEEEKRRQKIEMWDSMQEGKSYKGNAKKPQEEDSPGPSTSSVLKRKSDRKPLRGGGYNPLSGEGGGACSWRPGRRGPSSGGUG
UniProt Q15427: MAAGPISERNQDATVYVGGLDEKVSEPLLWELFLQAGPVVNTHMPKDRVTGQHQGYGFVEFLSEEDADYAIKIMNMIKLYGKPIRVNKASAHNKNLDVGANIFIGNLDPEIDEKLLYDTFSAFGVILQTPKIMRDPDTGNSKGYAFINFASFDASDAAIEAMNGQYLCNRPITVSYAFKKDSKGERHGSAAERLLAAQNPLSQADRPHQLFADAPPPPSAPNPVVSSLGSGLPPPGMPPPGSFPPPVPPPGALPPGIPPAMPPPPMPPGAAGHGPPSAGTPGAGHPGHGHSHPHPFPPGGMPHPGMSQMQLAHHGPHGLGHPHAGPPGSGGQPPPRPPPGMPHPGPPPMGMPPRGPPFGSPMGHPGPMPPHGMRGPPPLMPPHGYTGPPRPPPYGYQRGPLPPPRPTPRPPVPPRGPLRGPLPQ
UniProt Q9H299: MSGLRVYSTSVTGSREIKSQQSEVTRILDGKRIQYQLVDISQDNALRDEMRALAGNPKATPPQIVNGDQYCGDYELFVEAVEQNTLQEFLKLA
UniProt Q9Y371: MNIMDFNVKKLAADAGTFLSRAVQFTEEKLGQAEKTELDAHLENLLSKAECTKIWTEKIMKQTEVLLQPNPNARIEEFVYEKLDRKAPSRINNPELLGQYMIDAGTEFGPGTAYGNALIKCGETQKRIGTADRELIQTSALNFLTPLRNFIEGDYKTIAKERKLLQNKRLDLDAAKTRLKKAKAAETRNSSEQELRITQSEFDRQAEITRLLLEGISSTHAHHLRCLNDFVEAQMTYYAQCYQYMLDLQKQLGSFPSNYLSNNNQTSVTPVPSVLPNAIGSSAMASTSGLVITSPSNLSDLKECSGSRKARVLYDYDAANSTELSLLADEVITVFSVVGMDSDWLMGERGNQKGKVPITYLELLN
UniProt A0MZ66, whole entry, looked up: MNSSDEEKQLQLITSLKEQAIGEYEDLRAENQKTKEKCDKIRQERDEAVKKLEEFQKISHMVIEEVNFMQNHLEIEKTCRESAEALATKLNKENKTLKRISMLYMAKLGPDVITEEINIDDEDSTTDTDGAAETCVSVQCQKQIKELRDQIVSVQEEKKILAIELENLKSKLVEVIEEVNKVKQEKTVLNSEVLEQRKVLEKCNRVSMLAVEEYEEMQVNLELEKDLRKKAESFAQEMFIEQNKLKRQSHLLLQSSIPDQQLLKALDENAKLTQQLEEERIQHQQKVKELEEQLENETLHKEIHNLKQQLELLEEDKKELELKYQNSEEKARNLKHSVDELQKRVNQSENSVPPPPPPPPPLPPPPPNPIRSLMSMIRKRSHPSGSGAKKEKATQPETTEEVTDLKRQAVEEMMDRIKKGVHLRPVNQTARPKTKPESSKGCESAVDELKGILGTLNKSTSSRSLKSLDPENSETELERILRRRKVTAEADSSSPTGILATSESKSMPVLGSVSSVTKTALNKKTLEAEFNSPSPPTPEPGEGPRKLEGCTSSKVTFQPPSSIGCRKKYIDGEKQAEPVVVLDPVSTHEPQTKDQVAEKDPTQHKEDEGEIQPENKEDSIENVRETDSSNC
UniProt Q9UGP8: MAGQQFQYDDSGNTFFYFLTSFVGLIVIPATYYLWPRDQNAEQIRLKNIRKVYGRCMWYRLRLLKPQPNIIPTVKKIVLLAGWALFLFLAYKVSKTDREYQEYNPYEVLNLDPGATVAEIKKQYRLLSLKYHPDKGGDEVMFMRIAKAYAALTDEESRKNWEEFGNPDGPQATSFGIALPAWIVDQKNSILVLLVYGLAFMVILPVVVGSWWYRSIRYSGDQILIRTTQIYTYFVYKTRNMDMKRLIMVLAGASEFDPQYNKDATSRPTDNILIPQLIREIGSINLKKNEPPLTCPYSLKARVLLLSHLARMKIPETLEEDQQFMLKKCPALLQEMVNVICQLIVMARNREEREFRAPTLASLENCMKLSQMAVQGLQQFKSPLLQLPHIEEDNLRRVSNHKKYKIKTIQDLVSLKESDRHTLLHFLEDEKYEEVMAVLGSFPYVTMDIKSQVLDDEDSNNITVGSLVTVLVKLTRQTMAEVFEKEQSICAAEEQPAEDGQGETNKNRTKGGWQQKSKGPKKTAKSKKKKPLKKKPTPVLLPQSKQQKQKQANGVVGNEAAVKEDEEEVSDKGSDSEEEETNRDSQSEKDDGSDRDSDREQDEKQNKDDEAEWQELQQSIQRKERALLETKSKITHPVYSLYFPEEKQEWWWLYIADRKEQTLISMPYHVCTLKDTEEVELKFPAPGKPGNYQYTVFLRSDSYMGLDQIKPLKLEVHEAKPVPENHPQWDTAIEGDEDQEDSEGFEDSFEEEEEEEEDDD
UniProt P61619, whole entry, looked up: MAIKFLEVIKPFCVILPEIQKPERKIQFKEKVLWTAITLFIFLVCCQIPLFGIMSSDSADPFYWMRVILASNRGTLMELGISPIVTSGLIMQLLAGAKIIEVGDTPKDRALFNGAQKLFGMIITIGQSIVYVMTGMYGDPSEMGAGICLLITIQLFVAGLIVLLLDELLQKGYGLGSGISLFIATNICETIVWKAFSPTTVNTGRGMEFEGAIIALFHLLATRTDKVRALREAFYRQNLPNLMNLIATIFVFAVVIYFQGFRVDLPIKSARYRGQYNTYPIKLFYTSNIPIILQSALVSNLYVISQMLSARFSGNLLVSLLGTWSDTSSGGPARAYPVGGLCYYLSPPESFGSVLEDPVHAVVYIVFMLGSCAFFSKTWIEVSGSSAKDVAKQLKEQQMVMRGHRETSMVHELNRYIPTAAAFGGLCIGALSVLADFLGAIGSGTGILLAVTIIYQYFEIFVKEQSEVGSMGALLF
UniProt Q15019: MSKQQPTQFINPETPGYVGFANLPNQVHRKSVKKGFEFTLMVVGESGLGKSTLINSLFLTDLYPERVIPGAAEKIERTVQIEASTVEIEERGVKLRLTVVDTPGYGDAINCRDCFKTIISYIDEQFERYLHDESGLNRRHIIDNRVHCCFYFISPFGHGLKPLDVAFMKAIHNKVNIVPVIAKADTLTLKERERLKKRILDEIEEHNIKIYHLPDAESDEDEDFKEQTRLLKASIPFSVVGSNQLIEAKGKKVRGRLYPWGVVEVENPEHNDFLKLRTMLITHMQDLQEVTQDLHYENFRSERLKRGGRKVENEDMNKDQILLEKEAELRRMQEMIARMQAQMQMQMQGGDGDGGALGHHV

Legend:
Assay in all cases: log2 fold change, soluble protein after heating vs DMSO (PISA); higher = thermal stabilisation; K562 cells, 10 uM, 30 min; active = over 0.2 and 3.5 SD of the protein, either way, in both replicates (recomputed)
[1] = compound: CC1=C(C=C(C=C1)NC(=O)C2=CC(=CC=C2)C(C)(C)C#N)NC3=CC4=C(C=C3)N=CN(C4=O)C
How it was run: (§1)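 K562 cells at 2×10^6 cells/mL were given 10 μM compound for 30 min. Aliquots then went through 3 min of heating across 48°C-58°C, were pooled, and were extracted in PBS with 0.5% NP-40 at 4°C, and the supernatant after 21,000xg for 90 min was quantified by TMTpro 16plex LC-MS/MS with channel sums equalised. Thermal stability relative to control samples, from duplicates, is given as log2 fold change.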

[2] = compound: CC1=C(C=C(C=C1)NC(=O)C2=CC(=CC=C2)N(C)C)NC(=O)C3=CC=C(C=C3)O
How it was run: as §1

[3] = compound: CC1=CC=C(C=C1)SC2=C3C=C(SC3=CN=C2)C(=O)N
How it was run: as §1

[4] = compound: CC1=NC(=CC=C1)C2=C(N=C(N2)C(C)(C)C)C3=CC4=NC=CN=C4C=C3
How it was run: as §1

[5] = compound: CCCCN(Cc1ccc(C(=O)NO)cc1)C(=O)Nc1ccccc1 [Nexturastat A]
How it was run: as §1

[6] = compound: CCCS(=O)(=O)Nc1ccc(F)c(C(=O)c2c[nH]c3ncc(-c4ccc(Cl)cc4)cc23)c1F [vemurafenib]
How it was run: as §1

[7] = compound: CCCS(=O)(=O)Nc1ccc(F)c(C(=O)c2c[nH]c3ncc(Cl)cc23)c1F
How it was run: as §1

[8] = compound: CCCc1cc(C)[nH]c(=O)c1CNC(=O)c1cc(-c2ccnc(N3CCN(C)CC3)c2)cc2c1cnn2C(C)C
How it was run: as §1

[9] = compound: CCN(CC)Cc1ccc2cc(COC(=O)Nc3ccc(C(=O)NO)cc3)ccc2c1 [givinostat]
How it was run: as §1

[10] = compound: CCN(CCCOc1ccc2c(Nc3cc(CC(=O)Nc4cccc(F)c4)[nH]n3)ncnc2c1)CCOP(=O)(O)O [barasertib]
How it was run: as §1

[11] = compound: CC[C@@H]1C(=O)N(C)c2cnc(Nc3ccc(C(=O)NC4CCN(C)CC4)cc3OC)nc2N1C1CCCC1
How it was run: as §1

[12] = compound: CC[C@@H]1C(=O)N(C)c2cnc(Nc3ccc(C(=O)N[C@H]4CC[C@H](N5CCN(CC6CC6)CC5)CC4)cc3OC)nc2N1C(C)C [volasertib]
How it was run: as §1

[13] = compound: CC[C@H](C)N1C=C(C2=C(C=C(C=C21)C3=CN=C(C=C3)N4CCNCC4)C(=O)NCC5=C(C=C(NC5=O)C)C)C
How it was run: as §1

[14] = compound: CC[C@H](C)[C@@H](C(=O)N[C@@H]([C@@H](C)O)C(=O)N[C@@H](CC(C)C)C(=O)[C@]1(CO1)C)NC(=O)[C@H]([C@@H](C)CC)N(C)C(=O)C [epoxomicin]
How it was run: as §1

[15] = compound: CCn1c(C(=O)N(C2CC2)C2CC2)cc2c3c(ncn3C)c(Nc3cc(C)n(C)n3)nc21
How it was run: as §1

[16] = compound: CCn1cc(-c2ccnc3[nH]c(-c4cccc(CN(C)C)c4)cc23)c(-c2ccc(NC(=O)N(C)C)cc2)n1
How it was run: as §1

[17] = compound: CN(C)CC(=O)Nc1ccc2[nH]c(=O)c3ccccc3c2c1
How it was run: as §1

[18] = compound: CN(CCOC1=CC=C(C=C1)C[C@H]2C(=O)NC(=O)S2)C3=CC=CC=N3 (racemic) [rosiglitazone]
How it was run: as §1

[19] = compound: CN1C2=C(C3=C1C(=O)N(N=C3)CC4=CC(=CC=C4)N)SC(=C2)S(=O)C
How it was run: as §1

[20] = compound: CN1CCC(CNc2ccc3ncc(-c4cccc(OC(F)(F)F)c4)n3n2)CC1
How it was run: as §1

Measured: log2 fold change

SEPSECS (UniProt Q9HD40)
inactive: [1] 0.034 | [2] 0.017 | [3] 0.08 | [4] 0.01 | [5] -0.028 | [6] 0.041 | [7] 0.043 | [8] -0.067 | [9] 0.014 | [10] 0.061 | [11] 0.077 | [12] -0.1 | [13] 0.006 | [14] 0.061 | [15] -0.021 | [16] 0.064 | [17] 0.042 | [18] -0.032 | [19] -0.029 | [20] 0.087

SEPHS2 (UniProt Q99611)
inactive: [1] 0.044 | [2] 0.043 | [3] 0.084 | [4] 0.03 | [5] -0.032 | [6] 0.069 | [7] 0.044 | [8] -0.049 | [9] 0.035 | [10] -0.053 | [11] 0.043 | [12] 0.023 | [13] -0.034 | [14] 0.026 | [15] 0.024 | [16] -0.029 | [17] 0.03 | [18] -0.002 | [19] -0.038 | [20] 0.153

SH3BGRL (UniProt O75368)
inactive: [1] 0.104 | [2] -0.03 | [3] 0.055 | [4] 0.002 | [5] -0.007 | [6] 0.039 | [7] 0.07 | [8] 0.012 | [9] -0.026 | [10] 0.03 | [11] -0.002 | [12] 0.048 | [13] 0.166 | [14] 0.006 | [15] 0.025 | [16] -0.004 | [17] 0 | [18] -0.014 | [19] -0.077 | [20] -0.127

SH3BP5 (UniProt O60239)
inactive: [1] -0.031 | [2] -0.042 | [3] 0.017 | [4] 0.152 | [5] 0.059 | [6] -0.02 | [7] 0.013 | [8] 0 | [9] -0.002 | [10] 0.02 | [11] 0.016 | [12] -0.023 | [13] 0.077 | [14] 0.086 | [15] -0.012 | [16] -0.033 | [17] 0.023 | [18] 0.041 | [19] -0.153 | [20] 0

SF3B3 (UniProt Q15393)
inactive: [1] 0.026 | [2] -0.012 | [3] 0.004 | [4] 0.025 | [5] -0.029 | [6] 0.023 | [7] 0.011 | [8] -0.025 | [9] -0.008 | [10] -0.001 | [11] 0.02 | [12] -0.087 | [13] 0.001 | [14] 0.009 | [15] -0.019 | [16] 0.016 | [17] -0.012 | [18] -0.021 | [19] -0.022 | [20] 0.072

SELENOF (UniProt O60613)
inactive: [1] -0.03 | [2] -0.056 | [3] -0.039 | [4] -0.039 | [5] 0.006 | [6] 0.007 | [7] -0.052 | [8] -0.002 | [9] 0.005 | [10] -0.013 | [11] 0.012 | [12] -0.047 | [13] -0.002 | [14] 0 | [15] 0.007 | [16] -0.033 | [17] -0.008 | [18] -0.025 | [19] 0 | [20] 0.029

SFXN1 (UniProt Q9H9B4)
inactive: [1] 0.048 | [2] -0.011 | [3] 0.022 | [4] 0.05 | [5] -0.064 | [6] 0.013 | [7] 0.052 | [8] -0.003 | [9] 0.013 | [10] -0.01 | [11] -0.062 | [12] 0.012 | [13] -0.023 | [14] 0 | [15] 0.009 | [16] -0.009 | [17] 0.027 | [18] 0.028 | [19] -0.059 | [20] -0.053

SELENOS (UniProt Q9BQE4)
inactive: [1] 0 | [2] 0.002 | [3] 0.001 | [4] 0.001 | [5] 0.086 | [6] 0.002 | [7] -0.043 | [8] -0.02 | [9] -0.016 | [10] -0.043 | [11] 0.009 | [12] 0 | [13] -0.031 | [14] 0.169 | [15] 0.051 | [16] -0.023 | [17] -0.044 | [18] 0.034 | [19] 0.008 | [20] 0.042

SF3B4 (UniProt Q15427)
inactive: [1] 0.004 | [2] 0.055 | [3] -0.007 | [4] -0.018 | [5] 0.05 | [6] 0.027 | [7] -0.085 | [8] 0.053 | [9] 0.018 | [10] -0.048 | [11] 0.044 | [12] -0.025 | [13] 0 | [14] 0 | [15] -0.069 | [16] 0.154 | [17] -0.068 | [18] -0.046 | [19] 0.162 | [20] 0.158

SH3BGRL3 (UniProt Q9H299)
inactive: [1] -0.032 | [2] -0.173 | [3] 0.08 | [4] -0.015 | [5] -0.043 | [6] -0.037 | [7] 0.196 | [8] -0.06 | [9] 0.011 | [10] 0.033 | [11] -0.004 | [12] 0 | [13] -0.034 | [14] 0.018 | [15] 0.013 | [16] 0.007 | [17] -0.023 | [18] 0.016 | [19] -0.047 | [20] -0.048

Reprinted from the results shown (2 entries):
SFXN1 (UniProt Q9H9B4)
inactive: [1] 0.048 | [2] -0.011 | [3] 0.022 | [4] 0.05 | [5] -0.064 | [6] 0.013 | [7] 0.052 | [8] -0.003 | [9] 0.013 | [10] -0.01 | [11] -0.062 | [12] 0.012 | [13] -0.023 | [14] 0 | [15] 0.009 | [16] -0.009 | [17] 0.027 | [18] 0.028 | [19] -0.059 | [20] -0.053

SELENOS (UniProt Q9BQE4)
inactive: [1] 0 | [2] 0.002 | [3] 0.001 | [4] 0.001 | [5] 0.086 | [6] 0.002 | [7] -0.043 | [8] -0.02 | [9] -0.016 | [10] -0.043 | [11] 0.009 | [12] 0 | [13] -0.031 | [14] 0.169 | [15] 0.051 | [16] -0.023 | [17] -0.044 | [18] 0.034 | [19] 0.008 | [20] 0.042

Additional entries follow.

SH3GLB1 isoform 2 (UniProt Q9Y371)
inactive: [1] 0.037 | [2] -0.019 | [3] 0.006 | [4] -0.022 | [5] 0.09 | [6] -0.042 | [7] 0.029 | [8] 0.032 | [9] 0.067 | [10] 0.06 | [11] -0.181 | [12] -0.277 | [13] 0.141 | [14] -0.021 | [15] -0.056 | [16] -0.065 | [17] -0.045 | [18] 0.041 | [19] 0.082 | [20] -0.148

SHTN1 isoform 3 (UniProt A0MZ66)
inactive: [1] -0.054 | [2] -0.02 | [3] -0.005 | [4] -0.051 | [5] 0.048 | [6] -0.043 | [7] 0.028 | [8] 0.03 | [9] 0.074 | [10] 0.058 | [11] 0.062 | [12] -0.133 | [13] -0.01 | [14] -0.025 | [15] -0.076 | [16] 0.009 | [17] -0.015 | [18] 0.092 | [19] 0.025 | [20] -0.106

SEC63 (UniProt Q9UGP8)
inactive: [1] -0.013 | [2] 0.024 | [3] 0.005 | [4] 0.024 | [5] -0.044 | [6] 0.002 | [7] 0.012 | [8] -0.006 | [9] 0.009 | [10] -0.014 | [11] 0.051 | [12] 0.049 | [13] 0.017 | [14] -0.007 | [15] -0.024 | [16] -0.038 | [17] -0.018 | [18] 0.027 | [19] -0.064 | [20] 0.107

SEC61A1 (UniProt P61619)
inactive: [1] -0.003 | [2] 0.015 | [3] 0.053 | [4] -0.01 | [5] 0.041 | [6] -0.04 | [7] 0.011 | [8] -0.12 | [9] 0.014 | [10] -0.051 | [11] 0.046 | [12] 0 | [13] -0.074 | [14] -0.134 | [15] -0.021 | [16] 0.029 | [17] 0.003 | [18] 0.022 | [19] -0.079 | [20] 0.071

SERPINH1 (UniProt P50454)
inactive: [1] 0.004 | [2] -0.032 | [3] 0.011 | [4] -0.02 | [5] 0.011 | [6] 0.014 | [7] 0.012 | [8] 0.027 | [9] 0.007 | [10] 0.007 | [11] 0 | [12] 0.005 | [13] 0.021 | [14] 0.001 | [15] 0.011 | [16] -0.013 | [17] -0.015 | [18] 0.002 | [19] -0.006 | [20] 0.091

SEPTIN2 isoform 2 (UniProt Q15019)
inactive: [1] -0.018 | [2] 0 | [3] -0.003 | [4] 0.012 | [5] -0.026 | [6] -0.031 | [7] -0.031 | [8] -0.032 | [9] -0.006 | [10] -0.012 | [11] 0.042 | [12] 0.055 | [13] -0.034 | [14] 0.006 | [15] -0.012 | [16] -0.015 | [17] -0.008 | [18] 0.029 | [19] -0.026 | [20] -0.009
